Data as given in US9290777B2, “Putative cytokinin receptor and methods for use thereof” (NATIONAL UNIVERSITY OF SINGAPORE, priority 2007, dated 2016).
No constants are given. Whether binding was seen depends on the method and setting. For part of these data: In cells and extracts the contact can be indirect. Some results given as binding are weak or reduced against the parent protein; the word gives no strength. Sequences can lack the tags named with a protein.

Chains of the proteins cited; added tags and fusions are not shown. Lines headed by an entry give the natural chain unless they say otherwise; changes in a name come on top.
UniProt O23255: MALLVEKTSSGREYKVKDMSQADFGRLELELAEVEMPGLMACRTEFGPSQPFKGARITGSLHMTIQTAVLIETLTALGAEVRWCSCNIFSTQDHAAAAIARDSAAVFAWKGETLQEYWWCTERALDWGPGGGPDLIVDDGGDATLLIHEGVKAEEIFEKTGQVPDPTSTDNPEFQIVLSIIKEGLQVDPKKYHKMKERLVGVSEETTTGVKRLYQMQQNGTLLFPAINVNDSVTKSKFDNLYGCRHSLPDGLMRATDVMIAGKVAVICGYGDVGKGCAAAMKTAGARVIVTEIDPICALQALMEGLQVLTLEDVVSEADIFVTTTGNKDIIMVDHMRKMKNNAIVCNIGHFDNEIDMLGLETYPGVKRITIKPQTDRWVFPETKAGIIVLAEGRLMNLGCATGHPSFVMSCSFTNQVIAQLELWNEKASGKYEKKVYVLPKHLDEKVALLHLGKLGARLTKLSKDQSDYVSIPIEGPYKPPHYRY

Key:
[1] = target: T1, TAP-HOG1 fusion protein with the full N-terminal TAP tag (71 kDa), in transgenic Arabidopsis protein extract (Arabidopsis thaliana) (UniProt O23255); assay: TAP pull-down, SDS-PAGE, N-terminal sequencing
T1 sequence: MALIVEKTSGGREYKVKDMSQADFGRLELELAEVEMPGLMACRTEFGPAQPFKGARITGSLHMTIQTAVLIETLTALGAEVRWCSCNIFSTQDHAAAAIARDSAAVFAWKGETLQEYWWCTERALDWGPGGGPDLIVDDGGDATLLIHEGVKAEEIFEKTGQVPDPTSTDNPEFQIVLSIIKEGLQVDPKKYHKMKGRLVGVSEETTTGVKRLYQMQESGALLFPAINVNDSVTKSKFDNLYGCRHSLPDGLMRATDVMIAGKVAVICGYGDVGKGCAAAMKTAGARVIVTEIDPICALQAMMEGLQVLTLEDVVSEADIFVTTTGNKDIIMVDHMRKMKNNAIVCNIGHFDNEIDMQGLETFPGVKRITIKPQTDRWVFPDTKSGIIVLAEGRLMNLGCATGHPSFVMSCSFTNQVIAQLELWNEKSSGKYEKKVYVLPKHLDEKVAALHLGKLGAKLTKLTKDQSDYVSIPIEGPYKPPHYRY

[2] = target: T1, TAP-HOG1 fusion protein with the full N-terminal TAP tag (71 kDa), in transgenic Arabidopsis protein extract (Arabidopsis thaliana); assay: TAP pull-down from plant total protein extract, SDS-PAGE, N-terminal sequencing
[3] = target: T1, TAP-HOG1 fusion protein with the full N-terminal TAP tag (71 kDa), in transgenic Arabidopsis protein extract (Arabidopsis thaliana); assay: TAP tag purification of the protein complex from plants

Measured: binding

B1: endogenous AHP1 co-purified from Arabidopsis total protein extract (approximately 24 kDa band) (protein, Arabidopsis thaliana, UniProt Q9ZNV9 1-154, looked up)
chain: MDLVQKQKSLQDYTKSLFLEGILDSQFLQLQQLQDESNPDFVSQVVTLFFQDSDRILNDLSLSLDQQVVDFKKVDPHVHQLKGSSSSIGAQRVKNACVVFRSFCEQQNVEACHRCLQQVKQEYYLVKNRLETLFKLEQQIVASGGMIPAVELGF
binds: all assays above
